Assay results from PubChem BioAssay AID493014 (National Center for Advancing Translational Sciences (NCATS), 2011).
The campaign covered roughly 340,000 compounds. About 170 (0.05%) were called active. Inconclusive results, whose numbers are uncertain, are shown with a selection of clear calls. The call rests on the fitted dose curve; in most records, active means well fitted inhibition curve with a large enough effect in the signal ratio, with a control signal flat (not every such curve was filed as active); inconclusive means small, poorly fitted or top-dose-only effect, or effect the other way, or a change in a side signal; inactive means flat fitted curve, though single readings scatter; the % refers to the signal ratio. Where the call is inconclusive, the potency comes from a doubtful curve fit.

Assay: qHTS Assay to Find Inhibitors of Chronic Active B-Cell Receptor Signaling;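 on activity change, negative = inhibition: plate controls were basal doxycycline-induced cells for no effect and cells given 10 µM MG132 for full effect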
Details: ABC-DLBCL IkBa-CBG/CBR reporter, luminescence ratio (green luciferase fused to IkBa over red control in TMD8 lymphoma cells), 4 h; activity change, negative = inhibition: at 46.1 µM (top of the series) unless noted
Method in brief: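 Cell line TMD8 (human ABC DLBCL), stably expressing tet-inducible CBG68-IkBa fusion and CBR; IMDM/0.5% FBS; cpd up to 46 uM; dox induction, 4 h, 37C/5% CO2; dual luminescence; green/red ratio; MG132 control.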
Potency means the concentration at half of the fitted maximal effect.

| SMILES | activity change, negative = inhibition | Potency |
| --- | --- | --- |
| Cc1cc(NCc2ccccn2)n2ncc(-c3ccc(Cl)cc3)c2n1 | inactive: 9.62% |  |
| Cc1cc(=O)oc(C)c1C(=O)Nc1cccc2nonc12 | inconclusive: -0.101% |  |
| Cc1ccc(/C=C2/Sc3ccc(C(=O)N4CCN(C)CC4)cc3NC2=O)cc1 | inactive: 10.2% |  |
| O=[N+]([O-])c1ccc(Sc2cccc3cccnc23)cc1 |  | inconclusive: 14.6 µM [rising, partial curve, poor fit] |
| COC(=O)c1ccsc1NC(=O)CN1CCN(c2ccc(F)cc2)CC1 | inconclusive: -0.192% |  |
| CC(OC(=O)C1=COCCO1)C(=O)Nc1cc(S(=O)(=O)N2CCCCC2)ccc1Cl (stereo unspecified) | inactive: 4.6% |  |
| COc1ccc(CCC(=O)Nc2sc(C(=O)N(C)C)c(C)c2C#N)cc1 | inconclusive: -6.11% |  |
| O=c1cc(NCCc2ccccc2)c2ccccc2o1 |  | inconclusive: 22.4 µM [falling, single point] |
| COc1cc2ccccc2cc1C(=O)NC(=S)Nc1ccc(C(=O)O)cc1 |  | inconclusive: 1.58 µM [falling, full curve] |
| Cn1c(=O)c2c(nc(Cc3ccc(N)cc3)n2C)n(C)c1=O | inconclusive: -0.363% |  |
| Cc1cc(/C=C2/SC(=S)N(c3ccc([N+](=O)[O-])cc3)C2=O)c(C)n1-c1cccnc1 | inactive: 0.486% |  |
| COc1ccc(S(=O)(=O)N2CCCN(S(=O)(=O)c3ccc(OC)c(C)c3)CC2)cc1C |  | inconclusive: 29.1 µM [falling, single point] |
| CCCc1cc(-c2nc(N)ncc2-c2ccc3c(c2)OCCCO3)c(O)cc1OC | inconclusive: 0.587% |  |
| Nc1ncnc2c1ncn2[C@@H]1O[C@H](CNC(=O)[C@@H](N)CO)[C@@H](O)[C@H]1O | inconclusive: 4.26% |  |
| CC(C)C(NS(=O)(=O)c1cccc(C(F)(F)F)c1)C(=O)N1CCc2ccccc2C1 (stereo unspecified) | inconclusive: -14.5% |  |
| CC(=O)c1ccc(NC(=S)NCc2cccnc2)cc1 | inconclusive: 3.64% |  |
| CCc1cc2c(CN(C)Cc3ccccc3F)cc(=O)oc2cc1O |  | inconclusive: 31.6 µM [rising, partial curve, poor fit] |
| CC(C#N)Sc1nnc(Nc2ccccc2)s1 (stereo unspecified) | inactive: -12.8% |  |
| Cc1nc(NCc2ccc3c(c2)OCO3)c2oc3ccccc3c2n1 | inactive: 7.87% |  |
| O=C(CSc1nc(-c2ccccc2)cs1)N1CCN(C(=O)c2ccco2)CC1 | inconclusive: 6.24% |  |
| COc1ccc(NC(=O)c2cc3sccc3n2Cc2ccc(F)cc2)cc1OC | inactive: -8.24% |  |
| CCS(=O)(=O)n1nc(-c2ccccc2)cc1N | inactive: 13.3% |  |
| C[C@H](CO)N1C[C@H](C)[C@@H](CN(C)S(=O)(=O)c2cn(C)cn2)Oc2c(NS(=O)(=O)c3cccs3)cccc2C1=O | inconclusive: 1.55% |  |
| O=C(c1cccn2c(=O)c3cc(Cl)ccc3nc12)N1CCOCC1 | inconclusive: -1.56% |  |
| Cc1ccc(NC(=O)c2ccc3c(c2)OCO3)cc1Cl |  | inconclusive: 35.5 µM [falling, single point] |
| COc1cccc(NC(=O)C(=O)N2CCOCC2)c1 |  | inconclusive: 2.31 µM [falling, partial curve] |

| SMILES | activity change, negative = inhibition | Potency |
| --- | --- | --- |
| O=C(Nc1cccc(NC(=O)c2ccco2)c1)c1cccc(Br)c1 |  | inconclusive: 20 µM [falling, single point] |
| COc1cc(NC(=O)c2ccc([N+](=O)[O-])cc2)ccc1NC(=O)C(C)C | inconclusive: 1.19% |  |
| O=C(CCC(=O)Nc1ccc(Br)cc1)N/N=C/c1ccccc1O | inconclusive: 13.9% |  |
| CCOc1ccc(NC(=O)C2CCCN(C(=O)NCc3ccccc3)C2)cc1 (stereo unspecified) | inconclusive: -13.2% |  |
| C=CCN1C(=O)NC(c2ccccc2)(C(F)(F)F)S/C1=C(\C#N)c1nnc(N2CCOCC2)n1-c1ccccc1 (stereo unspecified) | inconclusive: -7.79% |  |
| O=C(CSc1ccccn1)N1CCc2ccccc21 |  | inconclusive: 35.5 µM [falling, single point] |
| COc1ccc(Cl)cc1C(=O)NCc1cnn(C)c1C | inactive: 0.145% |  |
| CN1CCN(C(=O)CCNC(=O)Cn2ccc3ccccc3c2=O)CC1 | inconclusive: 12.7% |  |
| O=C(Nc1cccc(O)c1)c1ccccc1[N+](=O)[O-] |  | inconclusive: 15.8 µM [falling, partial curve, poor fit] |
| Cc1sc2nc(CN3CCOCC3)nc(N3CCOCC3)c2c1C | inconclusive: 20.9% |  |
| Cc1ccsc1C(=O)OCC(=O)Nc1cccc(S(=O)(=O)NC2=NCCCCC2)c1 |  | inconclusive: 25.1 µM [falling, single point] |
| CCOC(=O)N1CCN(c2ccc(S(=O)(=O)N(Cc3ccccc3)Cc3ccccc3)cn2)CC1 | inactive: 0.152% |  |
| CC(C)CCNC(=O)c1onc(CSc2ccc(Cl)cc2)c1C(=O)NCCC(C)C | inconclusive: 10.9% |  |
| O=C(Cc1cccs1)N/N=C/C(Br)=C/c1ccccc1 | inconclusive: 9.65% |  |
| COC(=O)c1ccc(OS(=O)(=O)c2ccc(NC(C)=O)cc2)cc1 | inactive: -1.12% |  |
| C/C(=N/Nc1ccnc2cc(Cl)ccc12)c1ccc(N)cc1 | inactive: 19.4% |  |
| COc1ccc2nc(C)cc(SCC(=O)NNC(=O)COc3ccccc3)c2c1 | inactive: 5.77% |  |
| O=C(c1cccc(C(F)(F)F)c1)C1CCCN(Cc2cccn2-c2ccccn2)C1 (stereo unspecified) | inconclusive: -26.2% |  |
| Cc1cc(C)c(C(=O)C2OC(=O)C(C)(C)C(=O)C2(C)C)c(C)c1 (stereo unspecified) | inconclusive: 24.1% |  |
| COc1ccc(/C=N/NC(=O)c2ccoc2C)cc1O |  | inconclusive: 18.4 µM [falling, partial curve] |
| CC(C)(C)OC(=O)NN1CC(=O)N2Cc3ccccc3C[C@@H]2C1=O | inconclusive: -0.862% |  |
| O=C(Nc1ccc(-c2csc(Nc3ccc(Cl)cc3)n2)cc1)c1cc([N+](=O)[O-])cc(C(F)(F)F)c1 | inconclusive: 0.615% |  |
| O=C(Nc1cc(Cl)cc(Cl)c1)C(NCC1CCCO1)c1ccccc1 (stereo unspecified) |  | inconclusive: 14.6 µM [rising, partial curve, poor fit] |
| Cc1ccc(Cn2nnc3c(=O)[nH]c(C4CCN(S(=O)(=O)c5ccccc5F)CC4)nc32)cc1 | inactive: 14.1% |  |
| COc1ccc(/C=C2\SC(=S)N(CCC(=O)N3CCCCC3CCO)C2=O)cc1 (stereo unspecified) |  | inconclusive: 4.47 µM [falling, partial curve] |

One compound at a time, from the list above:
COc1ccc2nc(C)cc(SCC(=O)NNC(=O)COc3ccccc3)c2c1 is listed as activity change, negative = inhibition: inactive: 5.77%
O=C(c1cccc(C(F)(F)F)c1)C1CCCN(Cc2cccn2-c2ccccn2)C1 (stereo unspecified) is listed as activity change, negative = inhibition: inconclusive: -26.2%
O=C(CSc1ccccn1)N1CCc2ccccc21 is listed as Potency: inconclusive: 35.5 µM [falling, single point]
